1 molecule from article PMC8854694 can be followed below.

By UniProt entry, the sequences of proteins in these tests, tags left out.
UniProt P55196: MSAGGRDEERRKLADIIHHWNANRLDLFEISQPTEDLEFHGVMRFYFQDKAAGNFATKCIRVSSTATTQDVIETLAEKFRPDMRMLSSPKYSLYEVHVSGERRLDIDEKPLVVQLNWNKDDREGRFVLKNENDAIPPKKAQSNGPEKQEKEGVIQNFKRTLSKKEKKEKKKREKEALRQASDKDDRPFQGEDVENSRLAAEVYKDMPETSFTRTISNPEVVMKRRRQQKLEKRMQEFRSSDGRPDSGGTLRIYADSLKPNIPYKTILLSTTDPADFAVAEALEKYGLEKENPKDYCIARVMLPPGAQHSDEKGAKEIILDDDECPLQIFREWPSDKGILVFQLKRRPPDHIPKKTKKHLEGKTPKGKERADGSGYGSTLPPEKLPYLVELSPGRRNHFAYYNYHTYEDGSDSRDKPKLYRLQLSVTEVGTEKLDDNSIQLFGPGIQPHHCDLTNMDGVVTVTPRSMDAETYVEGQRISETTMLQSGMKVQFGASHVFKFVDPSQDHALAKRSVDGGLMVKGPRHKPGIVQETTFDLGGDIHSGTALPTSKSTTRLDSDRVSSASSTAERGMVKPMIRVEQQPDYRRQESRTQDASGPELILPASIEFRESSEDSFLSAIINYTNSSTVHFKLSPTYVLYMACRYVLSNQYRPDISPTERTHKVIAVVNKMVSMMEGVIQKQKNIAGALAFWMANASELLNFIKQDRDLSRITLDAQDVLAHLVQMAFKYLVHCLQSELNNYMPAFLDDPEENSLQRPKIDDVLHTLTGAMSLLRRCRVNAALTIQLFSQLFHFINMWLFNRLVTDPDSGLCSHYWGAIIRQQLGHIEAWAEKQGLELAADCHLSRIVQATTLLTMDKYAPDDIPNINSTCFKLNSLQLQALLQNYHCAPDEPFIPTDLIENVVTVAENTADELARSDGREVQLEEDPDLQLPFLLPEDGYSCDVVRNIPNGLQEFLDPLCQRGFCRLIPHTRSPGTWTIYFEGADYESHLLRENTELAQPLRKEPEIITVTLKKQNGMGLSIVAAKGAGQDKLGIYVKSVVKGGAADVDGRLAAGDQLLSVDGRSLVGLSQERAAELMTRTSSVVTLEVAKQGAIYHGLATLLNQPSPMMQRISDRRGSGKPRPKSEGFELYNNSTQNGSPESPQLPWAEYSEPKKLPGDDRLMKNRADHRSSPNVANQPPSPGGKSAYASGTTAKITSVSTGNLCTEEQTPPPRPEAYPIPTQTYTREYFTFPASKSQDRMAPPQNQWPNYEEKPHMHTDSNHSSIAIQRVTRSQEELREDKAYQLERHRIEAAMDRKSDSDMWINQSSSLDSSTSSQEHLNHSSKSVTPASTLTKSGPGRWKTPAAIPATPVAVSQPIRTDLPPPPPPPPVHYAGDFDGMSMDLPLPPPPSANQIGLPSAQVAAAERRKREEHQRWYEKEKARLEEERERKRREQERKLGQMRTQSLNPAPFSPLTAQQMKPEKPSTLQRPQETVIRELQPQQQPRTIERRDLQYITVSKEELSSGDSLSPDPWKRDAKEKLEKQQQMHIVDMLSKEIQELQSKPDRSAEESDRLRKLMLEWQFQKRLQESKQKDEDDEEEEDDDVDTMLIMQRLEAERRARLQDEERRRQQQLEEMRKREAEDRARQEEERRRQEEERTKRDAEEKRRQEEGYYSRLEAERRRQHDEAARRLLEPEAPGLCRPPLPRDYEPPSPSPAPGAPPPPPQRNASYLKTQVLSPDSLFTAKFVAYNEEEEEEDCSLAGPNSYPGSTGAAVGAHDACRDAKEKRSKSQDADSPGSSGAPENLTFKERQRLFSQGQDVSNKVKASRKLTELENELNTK

In the assay the target is Afadin (human (endogenous in Caco-2)) (UniProt P55196). The experiment in a line: co-IP; endogenous Afadin immunoprecipitated from Caco-2 lysate (about 1 mg; 50 mM Tris-HCl pH 8, 150 mM NaCl, 1 mM EDTA, 1% Triton X-100) with anti-Afadin and protein G Sepharose overnight at 4 °C; ASPP2 detected by immunoblot. On the technique in general: In western blotting, separated proteins are transferred to a membrane and probed.

No constants are given. Whether binding was seen depends on the method and setting. Binding seen in cells or lysates may run through a third protein. Some results given as binding are weak or reduced against the parent protein; the word gives no strength.

B1: ASPP2 (protein, UniProt Q13625 1-1128)
chain: MMPMFLTVYLSNNEQHFTEVPVTPETICRDVVDLCKEPGESDCHLAEVWCGSERPVADNERMFDVLQRFGSQRNEVRFFLRHERPPGRDIVSGPRSQDPSLKRNGVKVPGEYRRKENGVNSPRMDLTLAELQEMASRQQQQIEAQQQLLATKEQRLKFLKQQDQRQQQQVAEQEKLKRLKEIAENQEAKLKKVRALKGHVEQKRLSNGKLVEEIEQMNNLFQQKQRELVLAVSKVEELTRQLEMLKNGRIDSHHDNQSAVAELDRLYKELQLRNKLNQEQNAKLQQQRECLNKRNSEVAVMDKRVNELRDRLWKKKAALQQKENLPVSSDGNLPQQAASAPSRVAAVGPYIQSSTMPRMPSRPELLVKPALPDGSLVIQASEGPMKIQTLPNMRSGAASQTKGSKIHPVGPDWSPSNADLFPSQGSASVPQSTGNALDQVDDGEVPLREKEKKVRPFSMFDAVDQSNAPPSFGTLRKNQSSEDILRDAQVANKNVAKVPPPVPTKPKQINLPYFGQTNQPPSDIKPDGSSQQLSTVVPSMGTKPKPAGQQPRVLLSPSIPSVGQDQTLSPGSKQESPPAAAVRPFTPQPSKDTLLPPFRKPQTVAASSIYSMYTQQQAPGKNFQQAVQSALTKTHTRGPHFSSVYGKPVIAAAQNQQQHPENIYSNSQGKPGSPEPETEPVSSVQENHENERIPRPLSPTKLLPFLSNPYRNQSDADLEALRKKLSNAPRPLKKRSSITEPEGPNGPNIQKLLYQRTTIAAMETISVPSYPSKSASVTASSESPVEIQNPYLHVEPEKEVVSLVPESLSPEDVGNASTENSDMPAPSPGLDYEPEGVPDNSPNLQNNPEEPNPEAPHVLDVYLEEYPPYPPPPYPSGEPEGPGEDSVSMRPPEITGQVSLPPGKRTNLRKTGSERIAHGMRVKFNPLALLLDSSLEGEFDLVQRIIYEVDDPSLPNDEGITALHNAVCAGHTEIVKFLVQFGVNVNAADSDGWTPLHCAASCNNVQVCKFLVESGAAVFAMTYSDMQTAADKCEEMEEGYTQCSQFLYGVQEKMGIMNKGVIYALWDYEPQNDDELPMKEGDCMTIIHREDEDEIEWWWARLNDKEGYVPRNLLGLYPRIKPRQRSLA
Consider B1, for which the binding result was “binds”.
